Patent US20220074941A1, “HSP90 COMBINATION THERAPY” (Sloan-Kettering Institute for Cancer Research, priority 2011, published 2022)

System: Hsp90 complexes in K562 cell extract
Test: Nano-LC-MS/MS of PU-beads pull-downs
Assay type: binding
Conditions: for MAXIMUM matched peptides: maximum over fractions JA01-JA14; for Total fmol: protein isolated in PU-beads pull-downs, Waters Xevo QTof MS
Experimental: Protein cargo isolated from cell lysate with PU-beads or control-beads was subjected to proteomic analysis by nano liquid chromatography coupled to tandem mass spectrometry (nano LC-MS/MS). Initial protein identification was performed using the Mascot search engine, and was further evaluated using Scaffold Proteome Software (Tables 5a-d).
Lysates prepared as mentioned above were first pre-cleaned by incubation with control beads overnight at 4° C. […] Beads were washed with lysis buffer, proteins eluted by boiling in 2% SDS, separated on a denaturing gel and Coomassie stained according to manufacturer's procedure (Biorad). […] Analyses of the batch purified pools were done using a QSTAR-Elite hybrid quadrupole time-of-flight mass spectrometer (QTof MS) (AB/MDS Sciex), equipped with a nano spray ion source. Peptide mixtures (in 20 μL) are loaded onto a trapping guard column (0.3×5-mm PepMap C18 100 cartridge from LC Packings) using an Eksigent nano MDLC system (Eksigent Technologies, Inc) at a flow rate of 20 μL/min. […] Electrospray ionization (ESI) needle voltage was set at about 1800 V. The mass analyzer is operated in automatic, data-dependent MS/MS acquisition mode, with the threshold set to 10 counts per second of doubly or triply charged precursor ions selected for fragmentation scans. Survey scans of 0.25 sec are recorded from 400 to 1800 amu; up to 3 MS/MS scans are then collected sequentially for the selected precursor ions, recording from 100 to 1800 amu. The collision energy is automatically adjusted in accordance with the m/z value of the precursor ions selected for MS/MS. Selected precursor ions are excluded from repeated selection for 60 sec after the end of the corresponding fragmentation duty cycle. […] One missed tryptic cleavage site was allowed, precursor ion mass tolerance=0.4 Da fragment ion mass tolerance=0.4 Da, protein modifications were allowed for Met-oxide, Cys-acrylamide and N-terminal acetylation. MudPit scoring was typically applied with ‘require bold red’ activated, and using significance threshold score p<0.05. Unique peptide counts (or ‘spectral counts’) and percent sequence coverages for all identified proteins were exported to Scaffold Proteome Software (version 2_06_01, www.proteomesoftware.com) for further bioinformatic analysis (Table 5a). Using output from Mascot, Scaffold validates, organizes, and interprets mass spectrometry data, allowing more easily to manage large amounts of data, to compare samples, and to search for protein modifications.

B1: Serine/threonine-protein phosphatase 2A 65 kDa regulatory subunit A beta isoform (protein, UniProt P30154 2-601, looked up)
Serine/threonine-protein …: AGASELGTGPGAAGGDGDDSLYPIAVLIDELRNEDVQLRLNSIKKLSTIALALGVERTRSELLPFLTDTIYDEDEVLLALAEQLGNFTGLVGGPDFAHCLLPPLENLATVEETVVRDKAVESLRQISQEHTPVALEAYFVPLVKRLASGDWFTSRTSACGLFSVCYPRASNAVKAEIRQQFRSLCSDDTPMVRRAAASKLGEFAKVLELDSVKSEIVPLFTSLASDEQDSVRLLAVEACVSIAQLLSQDDLETLVMPTLRQAAEDKSWRVRYMVADRFSELQKAMGPKITLNDLIPAFQNLLKDCEAEVRAAAAHKVKELGENLPIEDRETIIMNQILPYIKELVSDTNQHVKSALASVIMGLSTILGKENTIEHLLPLFLAQLKDECPDVRLNIISNLDCVNEVIGIRQLSQSLLPAIVELAEDAKWRVRLAIIEYMPLLAGQLGVEFFDEKLNSLCMAWLVDHVYAIREAATNNLMKLVQKFGTEWAQNTIVPKVLVMANDPNYLHRMTTLFCINALSEACGQEITTKQMLPIVLKMAGDQVANVRFNVAKSLQKIGPILDTNALQGEVKPVLQKLGQDEDMDVKYFAQEAISVLALA
Matched Peptides by Fraction JA05 (PU-beads pull-down, Run1, gel size cut 60-80): 34 | Matched Peptides by Fraction JA12 (PU-beads pull-down, Run2, gel size cut 60-80): 37 | MAXIMUM matched peptides (PU-beads pull-down): 37 | Total fmol: 5.3180 fmol

B2: Vascular endothelial growth factor receptor 1; VEGFR-1 (protein, UniProt P17948 27-1338, looked up)
Vascular endothelial growth …: SKLKDPELSLKGTQHIMQAGQTLHLQCRGEAAHKWSLPEMVSKESERLSITKSACGRNGKQFCSTLTLNTAQANHTGFYSCKYLAVPTSKKKETESAIYIFISDTGRPFVEMYSEIPEIIHMTEGRELVIPCRVTSPNITVTLKKFPLDTLIPDGKRIIWDSRKGFIISNATYKEIGLLTCEATVNGHLYKTNYLTHRQTNTIIDVQISTPRPVKLLRGHTLVLNCTATTPLNTRVQMTWSYPDEKNKRASVRRRIDQSNSHANIFYSVLTIDKMQNKDKGLYTCRVRSGPSFKSVNTSVHIYDKAFITVKHRKQQVLETVAGKRSYRLSMKVKAFPSPEVVWLKDGLPATEKSARYLTRGYSLIIKDVTEEDAGNYTILLSIKQSNVFKNLTATLIVNVKPQIYEKAVSSFPDPALYPLGSRQILTCTAYGIPQPTIKWFWHPCNHNHSEARCDFCSNNEESFILDADSNMGNRIESITQRMAIIEGKNKMASTLVVADSRISGIYICIASNKVGTVGRNISFYITDVPNGFHVNLEKMPTEGEDLKLSCTVNKFLYRDVTWILLRTVNNRTMHYSISKQKMAITKEHSITLNLTIMNVSLQDSGTYACRARNVYTGEEILQKKEITIRDQEAPYLLRNLSDHTVAISSSTTLDCHANGVPEPQITWFKNNHKIQQEPGIILGPGSSTLFIERVTEEDEGVYHCKATNQKGSVESSAYLTVQGTSDKSNLELITLTCTCVAATLFWLLLTLFIRKMKRSSSEIKTDYLSIIMDPDEVPLDEQCERLPYDASKWEFARERLKLGKSLGRGAFGKVVQASAFGIKKSPTCRTVAVKMLKEGATASEYKALMTELKILTHIGHHLNVVNLLGACTKQGGPLMVIVEYCKYGNLSNYLKSKRDLFFLNKDAALHMEPKKEKMEPGLEQGKKPRLDSVTSSESFASSGFQEDKSLSDVEEEEDSDGFYKEPITMEDLISYSFQVARGMEFLSSRKCIHRDLAARNILLSENNVVKICDFGLARDIYKNPDYVRKGDTRLPLKWMAPESIFDKIYSTKSDVWSYGVLLWEIFSLGGSPYPGVQMDEDFCSRLREGMRMRAPEYSTPEIYQIMLDCWHRDPKERPRFAELVEKLGDLLQANVQQDGKDYIPINAILTGNSGFTYSTPAFSEDFFKESISAPKFNSGSSDDVRYVNAFKFMSLERIKTFEELLPNATSMFDDYQGDSSTLLASPMLKRFTWTDSKPKASLKIDLRVTSKSKESGLSDVSRPSFCHSSCGHVSEGKRRFTYDHAELERKIACCSPPPDYNSVVLYSTPPI
Matched Peptides by Fraction JA06 (PU-beads pull-down, Run1, gel size cut 40-60): 23 | Matched Peptides by Fraction JA13 (PU-beads pull-down, Run2, gel size cut 40-60): 14 | MAXIMUM matched peptides (PU-beads pull-down): 23 | Total fmol: 2.0434 fmol
